In patent US20090325290A1:
These are yes or no findings as the source states them, for the method shown. A result given as binding can be weak or reduced; the word gives no strength.

Target: human-mouse chimeric molecule DR-IE (human; mouse)
Assay: ELISA (FIG. 1b)

| binding | Binder |
| --- | --- |
| binds | MS-GPC-1 (Fab form) (Fab, V domains shown) VH: QVQLKESGPALVKPTQTLTLTCTFSGFSLSTSGVGVGWIRQPPGKALEWLALIDWDDDKYYSTSLKTRLTISKDTSKNQVVLTMTNMDPVDTATYYCARQYGHRGGFDHWGQGTLVTVSS VL: DIVLTQPPSVSGAPGQRVTISCSGSSSNIGSNYVSWYQQLPGTAPKLLIYDNNQRPSGVPDRFSGSKSGTSASLAITGLQSEDEADYYCQSYDFNESVFGGGTKLTVLG |
| binds | MS-GPC-10 (Fab form) (Fab, V domains shown) VH: QVQLKESGPALVKPTQTLTLTCTFSGFSLSTSGVGVGWIRQPPGKALEWLALIDWDDDKYYSTSLKTRLTISKDTSKNQVVLTMTNMDPVDTATYYCARQLHYRGGFDLWGQGTLVTVSS VL: DIVLTQPPSVSGAPGQRVTISCSGSSSNIGSNYVSWYQQLPGTAPKLLIYDNNQRPSGVPDRFSGSKSGTSASLAITGLQSEDEADYYCQSYDLTMGVFGGGTKLTVLG |
